# According to PubChem BioAssay AID1794845 (National Center for Advancing Translational Sciences (NCATS), 2023):
# Protein sequences, listed by entry. Tags and fused reporters are not part of them. Lines headed by an entry give the natural chain unless they say otherwise; changes in a name come on top.
# UniProt C7C422: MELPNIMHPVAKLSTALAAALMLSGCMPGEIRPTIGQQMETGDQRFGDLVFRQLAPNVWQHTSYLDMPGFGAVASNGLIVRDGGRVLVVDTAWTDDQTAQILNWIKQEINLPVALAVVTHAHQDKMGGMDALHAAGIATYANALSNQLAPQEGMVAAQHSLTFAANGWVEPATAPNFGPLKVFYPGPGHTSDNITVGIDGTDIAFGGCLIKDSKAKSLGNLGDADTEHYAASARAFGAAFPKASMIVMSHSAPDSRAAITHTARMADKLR
# Out of some 6,900 compounds screened, fewer than 10 were called active. Calls come from the whole dose curve; as a rule, active = well fitted curve in the direction sought with a large enough effect; inconclusive = small, poorly fitted or top-dose-only effect, or another doubt; inactive = no such curve, though single readings can be large or run the other way. The list shows a part of the results.
# Target: Metallo-beta-lactamase type 2 (Klebsiella pneumoniae) (UniProt C7C422)
# Experiment: qHTS to identify inhibitors of the New Delhi Metallo-beta-lactamase (NDM): primary screen against the NCATS Gemini Collection; note: % of control where 0% means no effect
# Conditions: NDM-1 enzyme, meropenem hydrolysis, absorbance 300 nm; at 38.4 µM (top of the series) unless noted
# Outline: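 NDM-1 at 2 nM final in 50 mM HEPES pH 7.0, 1 uM ZnSO4, 0.01% Tween20, preincubated >30 min with compound. Meropenem 50 uM final added; absorbance at 300 nm after 30 min.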
row,SMILES,activity % (negative = inhibition)
1,Cc1noc2c(N3CC[S+](=O)([O-])CC3)cc(-c3cccnc3)nc12,inactive: 83.6% [at 57.5 µM]
2,CCOc1ncccc1C(=O)N[C@H](c1cncc(OC)c1)C1CC(O)C1 (some centres undefined),inactive: -0.534%
3,Cc1nnc2n1C(C)CN(C(=O)Cn1nnc(-c3ccc(F)cc3)n1)C2 (centres undefined),inactive: 6.94%
4,CCc1ccc(CN2CCCC23Cc2ccccc2CNC3=O)s1 (centres undefined),inactive: 25.2%
5,CC1=NOC2(CCN(Cc3ccc(N(C)C)cc3)CC2)C1,inactive: 1.48% [at 57.5 µM]
6,Cc1noc([C@@H](C)NCc2cccc(Cl)c2)c1C(=O)O,inactive: 104% [at 57.5 µM]
7,O=C1COc2ccc(N3CCOCC3)nc2CN1Cc1ccc(F)cc1,inactive: 106% [at 57.5 µM]
8,O=C(c1cccc(OC(F)F)c1)N1CC[C@H](N2CCOCC2)[C@H](CCCO)C1,inactive: 0.772%
9,COc1ccccc1C(=O)N1CCC2(CC1)NC(=O)c1ccccc1O2,inactive: 0.364%
10,CCOc1ccc(NC(=O)Cn2nc3n(c2=O)CCN(Cc2ccccc2C)C3=O)cc1,inactive: -0.326%
11,Cc1ccccc1C(=O)N1CCC(N2CCCNC2=O)CC1,inactive: 0.886% [at 57.5 µM]
12,CC(C)N1C(=O)C2(CCCCC2)C1C(=O)NCc1nc2ccccc2n1C (centres undefined),inactive: 7.27%
13,COc1ccc(N2Cc3c(NCCc4ccccc4F)ncnc3N(C)CC2=O)cc1,inactive: 2.07%
14,CNC(=O)c1noc(CN2CCCC(CCc3ccccc3F)C2)n1 (centres undefined),inactive: 6.21%
15,CCN(CC)C(=O)[C@@H]1CCC[C@@H](NC2CCOCC2)CN(C)C(=O)C1,inactive: 13% [at 57.5 µM]
16,CN(C)C(=O)CO[C@H]1COCCN(Cc2ccccn2)C1,inactive: 7.83% [at 57.5 µM]
17,O=C(c1ccccc1F)N1CCC(N2CCCOC2=O)CC1,inactive: -0.708%
18,O=C1c2ccccc2OCC2(CCN([S+](=O)([O-])c3ccccc3)C2)N1[S+](=O)([O-])c1ccccc1 (centres undefined),inactive: 0.293%
19,O=C(c1ccc2ncccc2c1)N1CCC(c2nc(CCOCC3CCOCC3)no2)C1 (centres undefined),inactive: 10.6%
20,O=C(O)CC1(CC(=O)N[C@H]2C[C@@](O)(C(=O)N[C@H]3CCCNC3=O)C[C@@H](O)[C@@H]2O)CCCC1,inactive: -3.73%
21,COc1ccc(CC2(CO)CCNCC2)cc1,inactive: -1.07%
22,Cc1noc(C)c1CC(=O)N(C)C1CCc2nnc(C)n2CC1 (centres undefined),inactive: -9.75%
23,COc1cccc(CN2CCC3(CCC3OC)CC2)c1 (centres undefined),inactive: 4.72%
24,C[C@@H](NC(=O)C1=C[C@@H](NC(=O)Nc2ccccc2Br)[C@@H](O)[C@H](O)C1)C(N)=O,inactive: 13.8%
25,CCN1CCC(N2CC[C@H](CO)[C@H](N(C)C)C2)CC1,inactive: -5.7%
26,Cc1ccc(SC2CCN(Cc3nc(CCc4ccccc4)no3)CC2)cc1,inactive: 0.997%
27,OC1CCOC2(CCN(Cc3ccc4cc[nH]c4c3)CC2)C1 (centres undefined),inactive: -1.25%

row,SMILES,activity % (negative = inhibition)
1,CS(=O)(=O)N1CCC(C2CCN(C(=O)NC3CCCC3)C2)CC1 (centres undefined),inactive: 5.27%
2,O=C(NCCc1ccccn1)c1cccnc1OC1CCNCC1,inactive: 13.9%
3,c1ccc(CNc2ncc(CN3CCC4(CCNCC4)C3)cn2)cc1,inactive: -3.89%
4,C[C@@H]1CN(C(=O)c2ccc3c(c2)N(C)C(=O)CO3)C[C@@]1(O)C1CCC1,inactive: 0.651%
5,CCCOCCNC(=O)c1c(C)noc1-c1ccc(OC(F)(F)F)cc1,inactive: 4.3%
6,Cc1cc(C(=O)N[C@H]2[C@H](O)[C@H](O)C[C@@H]2c2cccnc2)n(C)n1,inactive: 4.06% [at 57.5 µM]
7,CC(=O)Nc1ccc(CC(=O)N2CCC3(CCc4nn(Cc5ccccc5)c(=O)n4CC3)CC2)cc1,inactive: 0.901%
8,C[C@]1(O)CCN(C(=O)c2cccc(Cn3cccn3)c2)C[C@@H]1O,inactive: -2.01%
9,CC[C@@]1(O)CCN(C(=O)c2ccccc2OCc2ccccc2)C[C@H]1O,inactive: -1.54%
10,CN(C(=O)c1cccn1C)C1CCc2nn(C)c(=O)n2CC1 (centres undefined),inactive: 0.156%
11,O=S(=O)(c1ccccc1F)N1CC(c2nc(Cc3ccccc3)no2)C1,inactive: -6.66%
12,CN(CC(=O)N1CCC(CCOc2ccc(F)cc2)C1)S(=O)(=O)c1ccc2c(c1)oc(=O)n2C (centres undefined),inactive: 14%
13,c1ccc(-c2nnc([C@H]3CCN(C4CCC4)C3)o2)cc1,inactive: 1.04% [at 77.1 µM]
14,O=C(Cc1cccs1)NC1CC(c2cc(N3CCC(O)C3)ncn2)C1 (centres undefined),inactive: 4.08%
15,Cc1ccc(CN2C(=O)[C@@H]3C[C@@H](O)CN3C3(CN(Cc4ccccc4Cl)C3)C2=O)o1,inactive: 0.511% [at 57.5 µM]
16,CN1C[C@H]2CN(Cc3c[nH]c4ccccc34)CCN2C1=O,inactive: 19.1% [at 77.1 µM]
17,NC(=O)[C@@H]1C[C@H](Oc2cccnc2)CN1C(=O)C1CCCCC1,inactive: 1.04%
18,CN1CCCN(C(=O)CN2CC3CC(C2)[C@H]2CCCC(=O)N2C3)CC1 (some centres undefined),inactive: -3.3%
19,CCc1cc(C(=O)N2CC[C@@H]3[C@@H](CCC(=O)N3CCN)C2)n(C)n1,inactive: 44.1%
20,Cc1ccc(C(=O)N2C[C@@H](F)C[C@H]2C(=O)N2CCOCC2)cc1,inactive: 4.66%
21,O=C(O)Cn1nc(C2CCOCC2)nc1C1CNC(=O)C1 (centres undefined),inactive: 17.7%
22,O=C1NCCOCCN(S(=O)(=O)c2ccc3c(c2)CCC3)[C@@H]2CCCC[C@H]12,inactive: 18.1%
23,COc1ccc(OCC2CN(Cc3cccs3)[S+](=O)([O-])c3cccnc3O2)cc1 (centres undefined),inactive: -2.36% [at 16.1 µM]
24,CN1CCN(C(=O)c2cc(-c3cccnc3)nc3c2cnn3C)CC1,inactive: 19.9% [at 57.5 µM]
25,O=C1N(Cc2ccccc2F)CCOC12CCN([S+](=O)([O-])c1cccnc1)CC2,inactive: 6.14% [at 57.5 µM]
26,COc1ccc(NC(=O)c2ccc3c(c2)N(C(=O)c2ccc(OC)cc2)CC3)cc1,inactive: 7.55%
27,Cc1cc(C(=O)N2c3ccccc3CC2c2nnc(C(C)C)o2)nn1C (centres undefined),inactive: 11.8%

# For convenience, some entries already given:
row,SMILES,activity % (negative = inhibition)
27,OC1CCOC2(CCN(Cc3ccc4cc[nH]c4c3)CC2)C1 (centres undefined),inactive: -1.25%
1,CS(=O)(=O)N1CCC(C2CCN(C(=O)NC3CCCC3)C2)CC1 (centres undefined),inactive: 5.27%
